PubChem BioAssay AID504784 – Drosophila RNAi Screening Center, 2011

- Screen: 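Fly genes whose silencing alters how much lipid cells keep in droplets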 (primary screen)
- System: Drosophila Kc167 embryonic cells
- Knock-down reagent: long dsRNA against Drosophila genes, about 250 ng dsRNA per well
- Timing: 4 days
- Challenge: cells fed 400 µM oleic acid bound to BSA
- Detection: 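Cells imaged and segmented; ratio of lipid droplet area to nuclear area, log-transformed, then normalised as a B-score over the screen; higher means more stored lipid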
- Scale: droplet/nuclear area B-score: higher = more stored lipid (overstorage)
The deposit covers about 17,000 reagents; shown is a random part of those that have a named target and a result. 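Each column is one replicate's B-score; the combined score over replicates was not deposited, so single values may mislead.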 Further read-outs or replicates are left out here.

After knock-down of nkt (GeneID 39264) [DRSC10144], the record shows droplet/nuclear area B-score, replicate 1 = -0.437. Against CG9044 (GeneID 33825) [DRSC03130], the entry reads droplet/nuclear area B-score, replicate 1 = -0.485. Pcyt1 (GeneID 117353) [DRSC08157] scored droplet/nuclear area B-score, replicate 1 = -1.62. With knock-down of TwdlX (GeneID 318094) [DRSC19151] the results were droplet/nuclear area B-score, replicate 1 = 0.079. Silencing of CG13931 (GeneID 38212) [DRSC08400] came out at: droplet/nuclear area B-score, replicate 1 = -0.824. djl (GeneID 40839) [DRSC12578] gave droplet/nuclear area B-score, replicate 1 = -1.96.

For ssh (GeneID 42986) [DRSC16730], the values are droplet/nuclear area B-score, replicate 1 = 1.16. After knock-down of CG14613 (GeneID 33133) [DRSC20625], the record shows droplet/nuclear area B-score, replicate 1 = 0.718. After knock-down of CG30416 (GeneID 246603) [DRSC04565], the screen gave droplet/nuclear area B-score, replicate 1 = -0.0203. Against knrl (GeneID 40285) [DRSC11892], the values are droplet/nuclear area B-score, replicate 1 = -0.775. Against knrl (GeneID 40285) [DRSC23245], the entry reads droplet/nuclear area B-score, replicate 1 = -0.459. After knock-down of CG6574 (GeneID 41308) [DRSC16070], the screen gave droplet/nuclear area B-score, replicate 1 = 0.319.

HmgD (GeneID 37481) [DRSC04619] showed droplet/nuclear area B-score, replicate 1 = 2.87. After knock-down of Nup54 (GeneID 36360) [DRSC07282], the record shows droplet/nuclear area B-score, replicate 1 = -0.0811. CG12479 (GeneID 50344) [DRSC19459] showed droplet/nuclear area B-score, replicate 1 = 0.0941. jef (GeneID 36634) [DRSC06198] scored droplet/nuclear area B-score, replicate 1 = -0.933. Against NHP2 (GeneID 44005) [DRSC11229], the entry reads droplet/nuclear area B-score, replicate 1 = 1.21. ppk30 (GeneID 43487) [DRSC15302] showed droplet/nuclear area B-score, replicate 1 = 0.281.

Silencing of CG8814 (GeneID 33492) [DRSC00707] resulted in: droplet/nuclear area B-score, replicate 1 = 1.27. SCCRO3 (GeneID 36426) [DRSC06359] showed droplet/nuclear area B-score, replicate 1 = -2.89. CG8388 (GeneID 36763) [DRSC07157] scored droplet/nuclear area B-score, replicate 1 = 1.32. CG15118 (GeneID 37199) [DRSC06540] showed droplet/nuclear area B-score, replicate 1 = 1.25. After knock-down of FASN2 (GeneID 117361) [DRSC00167], the screen gave droplet/nuclear area B-score, replicate 1 = 1.03. FASN2 (GeneID 117361) [DRSC00610] showed droplet/nuclear area B-score, replicate 1 = -0.00924.

For IntS1 (GeneID 37840) [DRSC04343] the deposit lists droplet/nuclear area B-score, replicate 1 = 1.25. CG12780 (GeneID 35834) [DRSC06169] showed droplet/nuclear area B-score, replicate 1 = -0.0118. For AlaRS (GeneID 34156) [DRSC01851], the values are droplet/nuclear area B-score, replicate 1 = 0.432.

3 entries from above, ordered by “droplet/nuclear area B-score, replicate 1”, low to high.
knrl (GeneID 40285) [DRSC23245]: droplet/nuclear area B-score, replicate 1 = -0.459
CG6574 (GeneID 41308) [DRSC16070]: droplet/nuclear area B-score, replicate 1 = 0.319
HmgD (GeneID 37481) [DRSC04619]: droplet/nuclear area B-score, replicate 1 = 2.87
